Assay results from paper PMC6464043.
No constants are given. Whether binding was seen depends on the method and setting. Binding seen in cells or lysates may run through a third protein. These calls come from enrichment with a bait or labelling near it, and not all partners need be listed.

Amino acid sequences for entries named in this document (tags omitted).
UniProt P49739: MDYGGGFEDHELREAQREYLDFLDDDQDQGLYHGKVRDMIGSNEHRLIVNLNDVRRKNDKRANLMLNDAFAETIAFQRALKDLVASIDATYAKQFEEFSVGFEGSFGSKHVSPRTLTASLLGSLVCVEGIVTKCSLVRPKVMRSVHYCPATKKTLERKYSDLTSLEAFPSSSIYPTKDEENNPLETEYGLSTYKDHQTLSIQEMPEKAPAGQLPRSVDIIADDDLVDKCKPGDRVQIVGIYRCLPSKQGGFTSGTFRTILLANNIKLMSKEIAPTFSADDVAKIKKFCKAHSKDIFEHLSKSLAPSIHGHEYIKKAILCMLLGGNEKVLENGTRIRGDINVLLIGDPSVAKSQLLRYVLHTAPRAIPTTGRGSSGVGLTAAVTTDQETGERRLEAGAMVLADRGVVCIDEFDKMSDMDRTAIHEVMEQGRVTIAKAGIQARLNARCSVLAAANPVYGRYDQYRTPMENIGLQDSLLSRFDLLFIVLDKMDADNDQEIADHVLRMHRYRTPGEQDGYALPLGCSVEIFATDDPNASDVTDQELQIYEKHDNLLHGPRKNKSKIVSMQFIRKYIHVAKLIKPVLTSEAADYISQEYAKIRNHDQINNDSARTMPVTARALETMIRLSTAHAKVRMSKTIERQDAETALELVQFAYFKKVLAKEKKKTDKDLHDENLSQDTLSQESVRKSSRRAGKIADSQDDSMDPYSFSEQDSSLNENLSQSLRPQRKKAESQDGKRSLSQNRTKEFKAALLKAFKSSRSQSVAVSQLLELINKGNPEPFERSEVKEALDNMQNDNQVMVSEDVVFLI

Target: Mcm3 (X. laevis (endogenous in egg extract)) (UniProt P49739)
Assay: affinity purification with mass spectrometry; Mcm3 (or control sheep IgG) immunoprecipitation from chromatin isolated 60 min after cyclin A1Δ addition (mitosis) from X. laevis egg extract with caffeine and p97 inhibitor NMS873; chromatin proteins released with benzonase, sonication, 150 mM potassium acetate

B1: Ctf4/And-1 (protein, UniProt O13046 1-1127)
chain: MPAIKKNMRYGHPEGHTDVCFDDSGNFLVTCGSDGDIRIWESLDDDDPKSISIGEKAYSFALKNGKVVTAASNNAIQLHTFPDGEPDGILTRFTTNANHVVFNTDGTRIAAGSGDFLVKVLQVEDSTQQKTLRGHSAPVLSVSFDPKDIYLASASCDGSVRIWKISDQTCEAVLPLLEKCNDVFNAKSICRLAWQPKSGKFVAIPVGKAVHLYDRDSLKNICTLSDDFITQPVNIVAWSPCGQYLVAGSVDGCIVAWNIATKACLERIKHEKGYTICALAWHPHLPQIAYTDNEGNLGLLEDVCQGDVKQPSAKVSSAETKDYDELFDGDDDEDFLNGDMIGHEGAVNDEDDDDNFTALTGRPRNRGAIFDDDISSDVPSLKLVGNENPVVEDDQASSVQNFTSVASVKLSYNGPMPTPQQKPFQSGSTPVHLMHRFMVWNSVGVIRCYNDEQDNAIDVEFHDTSIHHAIHLTNSLNHTLADVSQEAVLLACETTEELASKLQCLHFSSWDTSKEWMVDMPKGENIQAICLGQGWVACATSALLIRIFSVGGVQKELISLFGPVVCMASHGEQLIVVYHRGMGFDGDQCLGVQLLELGKKKKQVLHGDPLPLSRKSYLSWLGFTAEGSPCYVDSEGIVRLLNRSLGDTWVPICNTREHCKGKSDHYWVVGIHENPQQVRCIPCKGSRFPPTLPRPAVAVLPFNLPYCQITTEKGQMEEQYWRSQIFSNHSDYLSKHGYECDENFKAEAQKMQQELLMKMFALSCKLEREFRCMELAEFMTQNVMNLAIKYASRSKRLILAQRLSEMALEKAAEQASAEQNEEEDEEEEDFRSRLTAGYSRTATEWGDSRAKPVKQDQYEENNEEEMEEEEKEQEEALESNTPTANPFNKSVKTPDVSESKLGAILSSNQGRVNPFKVSASQKSPAFASNSSRSTSILDNMGKFPRKPSASGSPSTSKSDSVIIKPLAPKAKSKQGQATLFHSVQAKPIAKKTTEEKKAVPTPPKAAADIAENKKPKTGFQLWLDENRPSILSENAGLDESEIIKEGMSRFRMLTSEERMLWTEKAKGDYPGEDGADAKKRKRPEQENMASNGCPQENTDSGIAAAKKHKPLGQSANNKLSAFAFKKE
With B1 the binding was “binds”.

B2: TRAIP ubiquitin ligase (protein, UniProt Q6NRV0 1-464)
chain: MPIRAYCTICSDFFDNARDVAAITCGHTFHQECLLQWFHSAPHRTCPQCRIQVSSRQIINKLFFDIGGEEETVLDAESLKNEVDRIKASLLVKEKEKRECQGLVDSLREMLDVRNVTIQSQQKELGDMEMLCSTLKKQIKFLDKQQSETKAAKDEARKLRNKLKTMESIEVLLQSQRSEVEEMIRDMGSGQAAVEQLAIYCVSLKKEYENLKEVRKSSAEMTEKLRKELFSSNHKAQKAELELTKVREELSASQKELHSADKEIMSLKKKVEFLQKTLTTPTASNEAISRLIFESPAPIGLERPKLRPPMMGNDINLDVTFDIDTPEHNTQKSVVAPFKKMKFDNKEHPLSSPTKNPLQESKGLMSWAGGRTGADEDDDLTLPSFIKNSLLHKKPVGSLLGLRQNTGAVRTGFDGLGGRTKFIQPSNLTEIRPLHQKMKRKKVSRPTACTSSLANQPRLEDFLK
With B2 the binding was “binds”.
